{"sequences": {"note": "Chains of the proteins cited; added tags and fusions are not shown. Lines headed by an entry give the natural chain unless they say otherwise; changes in a name come on top. Residues count along the entry.", "UniProt P49454": "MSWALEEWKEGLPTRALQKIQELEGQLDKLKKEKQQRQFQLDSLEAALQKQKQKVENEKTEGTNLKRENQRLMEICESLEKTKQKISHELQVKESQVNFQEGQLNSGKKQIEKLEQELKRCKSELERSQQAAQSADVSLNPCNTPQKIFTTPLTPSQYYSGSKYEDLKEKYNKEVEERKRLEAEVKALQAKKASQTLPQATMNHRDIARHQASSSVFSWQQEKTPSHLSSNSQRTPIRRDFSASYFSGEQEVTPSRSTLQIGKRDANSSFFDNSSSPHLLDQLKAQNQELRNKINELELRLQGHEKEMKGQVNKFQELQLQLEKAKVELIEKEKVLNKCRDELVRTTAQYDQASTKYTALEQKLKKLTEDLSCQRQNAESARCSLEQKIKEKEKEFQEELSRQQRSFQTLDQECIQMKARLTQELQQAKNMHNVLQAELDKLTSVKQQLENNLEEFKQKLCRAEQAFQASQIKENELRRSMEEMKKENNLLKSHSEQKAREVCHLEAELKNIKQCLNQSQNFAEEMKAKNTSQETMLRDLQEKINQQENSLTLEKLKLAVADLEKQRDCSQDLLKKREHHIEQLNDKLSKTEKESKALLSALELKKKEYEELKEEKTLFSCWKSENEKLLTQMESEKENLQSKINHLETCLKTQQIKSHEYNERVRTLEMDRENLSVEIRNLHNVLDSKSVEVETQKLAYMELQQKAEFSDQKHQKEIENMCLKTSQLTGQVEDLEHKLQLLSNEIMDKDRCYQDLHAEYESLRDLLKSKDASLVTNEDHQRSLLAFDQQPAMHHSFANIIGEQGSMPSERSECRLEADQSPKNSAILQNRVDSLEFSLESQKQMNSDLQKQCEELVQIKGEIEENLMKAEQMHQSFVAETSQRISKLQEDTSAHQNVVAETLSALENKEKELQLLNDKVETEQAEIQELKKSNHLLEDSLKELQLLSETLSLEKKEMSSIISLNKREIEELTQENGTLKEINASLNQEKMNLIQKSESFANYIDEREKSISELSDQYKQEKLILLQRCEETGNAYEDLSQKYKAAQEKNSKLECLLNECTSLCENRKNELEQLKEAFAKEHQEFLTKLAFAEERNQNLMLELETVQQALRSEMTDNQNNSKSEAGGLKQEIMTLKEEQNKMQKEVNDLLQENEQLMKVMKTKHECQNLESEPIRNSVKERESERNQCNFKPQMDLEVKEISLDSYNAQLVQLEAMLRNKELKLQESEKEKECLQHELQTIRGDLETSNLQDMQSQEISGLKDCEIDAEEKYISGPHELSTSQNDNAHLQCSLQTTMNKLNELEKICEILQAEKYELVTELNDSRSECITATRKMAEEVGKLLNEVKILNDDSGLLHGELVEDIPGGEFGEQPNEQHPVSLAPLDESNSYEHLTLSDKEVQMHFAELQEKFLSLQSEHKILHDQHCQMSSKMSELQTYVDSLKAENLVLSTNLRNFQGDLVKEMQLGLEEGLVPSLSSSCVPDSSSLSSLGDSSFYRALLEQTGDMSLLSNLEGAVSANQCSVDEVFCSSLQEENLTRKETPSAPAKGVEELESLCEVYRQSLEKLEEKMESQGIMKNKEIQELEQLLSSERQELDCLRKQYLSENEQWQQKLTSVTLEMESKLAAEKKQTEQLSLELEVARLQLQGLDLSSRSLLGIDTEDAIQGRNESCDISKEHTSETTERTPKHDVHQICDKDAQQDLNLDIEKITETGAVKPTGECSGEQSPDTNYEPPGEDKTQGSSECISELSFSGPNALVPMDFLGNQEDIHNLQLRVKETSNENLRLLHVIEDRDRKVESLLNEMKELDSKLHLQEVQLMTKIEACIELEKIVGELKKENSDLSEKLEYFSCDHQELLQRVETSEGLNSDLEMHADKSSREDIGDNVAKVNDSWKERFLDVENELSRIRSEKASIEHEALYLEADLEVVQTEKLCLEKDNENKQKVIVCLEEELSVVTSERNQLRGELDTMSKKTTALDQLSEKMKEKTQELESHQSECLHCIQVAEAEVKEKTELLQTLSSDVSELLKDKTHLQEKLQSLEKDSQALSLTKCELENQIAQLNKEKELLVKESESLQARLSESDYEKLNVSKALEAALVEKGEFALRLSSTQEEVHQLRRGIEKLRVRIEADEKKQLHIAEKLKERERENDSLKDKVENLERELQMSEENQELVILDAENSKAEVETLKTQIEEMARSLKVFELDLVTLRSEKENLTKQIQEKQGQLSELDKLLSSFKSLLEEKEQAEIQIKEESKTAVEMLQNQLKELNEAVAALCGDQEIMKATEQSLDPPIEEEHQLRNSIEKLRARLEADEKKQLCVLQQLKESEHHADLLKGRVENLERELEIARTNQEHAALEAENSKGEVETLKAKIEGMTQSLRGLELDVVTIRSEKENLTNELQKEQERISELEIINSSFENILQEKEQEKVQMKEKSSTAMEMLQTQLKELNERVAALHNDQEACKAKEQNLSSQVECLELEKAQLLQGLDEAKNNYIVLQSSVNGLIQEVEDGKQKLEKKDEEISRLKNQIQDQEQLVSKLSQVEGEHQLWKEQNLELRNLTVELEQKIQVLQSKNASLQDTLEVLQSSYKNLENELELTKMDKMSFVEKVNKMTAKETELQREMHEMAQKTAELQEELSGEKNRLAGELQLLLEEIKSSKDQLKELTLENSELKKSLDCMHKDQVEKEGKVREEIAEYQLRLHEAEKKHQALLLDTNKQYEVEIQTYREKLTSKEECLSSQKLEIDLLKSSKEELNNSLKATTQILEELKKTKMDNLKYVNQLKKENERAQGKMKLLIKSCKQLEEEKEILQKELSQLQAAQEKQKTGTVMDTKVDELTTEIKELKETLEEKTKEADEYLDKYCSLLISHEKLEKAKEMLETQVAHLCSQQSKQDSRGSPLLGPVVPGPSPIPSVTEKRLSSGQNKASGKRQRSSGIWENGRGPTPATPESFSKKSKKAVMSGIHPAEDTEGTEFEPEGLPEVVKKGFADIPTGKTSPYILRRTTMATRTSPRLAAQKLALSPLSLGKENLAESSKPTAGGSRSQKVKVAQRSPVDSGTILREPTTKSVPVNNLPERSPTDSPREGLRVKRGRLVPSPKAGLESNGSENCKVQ", "UniProt Q99741": "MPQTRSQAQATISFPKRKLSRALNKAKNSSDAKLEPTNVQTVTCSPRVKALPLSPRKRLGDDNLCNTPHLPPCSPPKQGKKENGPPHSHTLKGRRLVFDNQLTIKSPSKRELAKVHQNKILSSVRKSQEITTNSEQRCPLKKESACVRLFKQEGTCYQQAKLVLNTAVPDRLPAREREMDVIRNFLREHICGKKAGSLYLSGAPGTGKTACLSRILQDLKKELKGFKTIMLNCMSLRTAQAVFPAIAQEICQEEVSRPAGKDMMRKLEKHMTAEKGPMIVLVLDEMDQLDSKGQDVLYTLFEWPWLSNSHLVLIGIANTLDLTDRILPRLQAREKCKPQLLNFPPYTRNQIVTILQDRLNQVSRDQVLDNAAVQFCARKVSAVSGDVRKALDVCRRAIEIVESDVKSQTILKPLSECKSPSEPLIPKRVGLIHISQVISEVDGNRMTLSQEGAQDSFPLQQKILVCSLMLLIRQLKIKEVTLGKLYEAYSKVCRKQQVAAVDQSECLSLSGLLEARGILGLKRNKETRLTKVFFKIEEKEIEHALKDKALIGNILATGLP", "UniProt Q69YH5": "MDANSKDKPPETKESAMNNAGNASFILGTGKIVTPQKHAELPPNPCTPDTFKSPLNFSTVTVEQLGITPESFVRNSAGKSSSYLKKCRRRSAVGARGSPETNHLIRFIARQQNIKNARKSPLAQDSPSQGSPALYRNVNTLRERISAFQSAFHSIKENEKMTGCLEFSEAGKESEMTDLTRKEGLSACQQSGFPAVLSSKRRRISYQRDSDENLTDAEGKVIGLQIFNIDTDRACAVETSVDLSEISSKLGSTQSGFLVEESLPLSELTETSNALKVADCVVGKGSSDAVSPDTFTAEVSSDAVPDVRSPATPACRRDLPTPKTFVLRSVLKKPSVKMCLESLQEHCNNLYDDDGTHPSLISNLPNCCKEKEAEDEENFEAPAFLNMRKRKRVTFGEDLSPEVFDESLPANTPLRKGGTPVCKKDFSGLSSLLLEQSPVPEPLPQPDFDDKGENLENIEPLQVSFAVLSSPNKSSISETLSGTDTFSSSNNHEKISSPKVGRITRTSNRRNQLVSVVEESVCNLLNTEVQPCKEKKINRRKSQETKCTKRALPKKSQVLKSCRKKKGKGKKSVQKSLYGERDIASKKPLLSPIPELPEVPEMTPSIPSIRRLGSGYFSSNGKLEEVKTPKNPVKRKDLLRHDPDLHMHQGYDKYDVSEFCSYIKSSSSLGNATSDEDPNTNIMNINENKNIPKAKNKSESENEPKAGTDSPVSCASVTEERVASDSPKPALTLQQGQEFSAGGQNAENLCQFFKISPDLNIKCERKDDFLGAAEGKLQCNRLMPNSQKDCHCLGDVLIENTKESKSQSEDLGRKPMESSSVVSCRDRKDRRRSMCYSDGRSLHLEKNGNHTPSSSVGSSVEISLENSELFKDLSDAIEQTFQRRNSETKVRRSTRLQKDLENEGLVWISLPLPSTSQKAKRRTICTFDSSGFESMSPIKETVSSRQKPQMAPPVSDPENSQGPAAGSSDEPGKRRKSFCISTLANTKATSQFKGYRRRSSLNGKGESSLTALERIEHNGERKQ", "UniProt Q9BSQ5": "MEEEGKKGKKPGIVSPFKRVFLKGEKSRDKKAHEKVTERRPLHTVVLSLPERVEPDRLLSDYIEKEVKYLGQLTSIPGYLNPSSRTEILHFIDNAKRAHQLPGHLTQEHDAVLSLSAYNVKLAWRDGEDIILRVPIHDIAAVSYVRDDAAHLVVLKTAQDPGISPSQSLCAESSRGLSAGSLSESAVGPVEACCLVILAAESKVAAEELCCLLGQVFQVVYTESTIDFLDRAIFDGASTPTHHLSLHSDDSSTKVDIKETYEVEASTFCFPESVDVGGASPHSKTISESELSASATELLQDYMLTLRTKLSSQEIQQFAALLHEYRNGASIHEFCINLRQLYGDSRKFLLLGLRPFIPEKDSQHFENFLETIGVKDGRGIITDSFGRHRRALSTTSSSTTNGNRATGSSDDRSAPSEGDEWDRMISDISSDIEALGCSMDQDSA", "UniProt P48643, whole entry, looked up": "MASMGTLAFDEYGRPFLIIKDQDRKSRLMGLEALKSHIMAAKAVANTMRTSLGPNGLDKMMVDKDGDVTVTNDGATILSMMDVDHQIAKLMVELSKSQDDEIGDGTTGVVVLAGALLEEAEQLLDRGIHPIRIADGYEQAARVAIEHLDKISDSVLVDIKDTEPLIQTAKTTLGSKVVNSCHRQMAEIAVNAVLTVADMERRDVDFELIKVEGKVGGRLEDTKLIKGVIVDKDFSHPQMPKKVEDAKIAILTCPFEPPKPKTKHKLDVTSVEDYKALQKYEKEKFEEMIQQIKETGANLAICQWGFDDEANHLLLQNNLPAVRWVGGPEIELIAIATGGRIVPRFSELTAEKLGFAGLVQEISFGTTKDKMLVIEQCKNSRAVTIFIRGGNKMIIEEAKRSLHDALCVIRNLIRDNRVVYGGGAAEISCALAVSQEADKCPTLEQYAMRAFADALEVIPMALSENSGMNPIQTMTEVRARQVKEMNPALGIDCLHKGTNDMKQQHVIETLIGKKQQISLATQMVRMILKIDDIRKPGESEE", "UniProt Q96A33": "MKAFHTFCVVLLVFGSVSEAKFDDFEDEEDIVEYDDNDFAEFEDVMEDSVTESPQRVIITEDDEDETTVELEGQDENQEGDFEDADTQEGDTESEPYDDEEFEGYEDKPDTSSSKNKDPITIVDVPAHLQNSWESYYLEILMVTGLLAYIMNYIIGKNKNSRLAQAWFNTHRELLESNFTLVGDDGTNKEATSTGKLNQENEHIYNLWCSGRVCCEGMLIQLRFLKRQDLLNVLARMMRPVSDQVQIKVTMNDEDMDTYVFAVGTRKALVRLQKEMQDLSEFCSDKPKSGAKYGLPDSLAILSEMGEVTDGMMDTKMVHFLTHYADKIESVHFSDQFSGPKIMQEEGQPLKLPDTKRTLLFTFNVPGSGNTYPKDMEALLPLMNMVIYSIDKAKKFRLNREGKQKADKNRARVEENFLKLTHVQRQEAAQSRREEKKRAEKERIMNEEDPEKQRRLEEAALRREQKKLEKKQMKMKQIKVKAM", "UniProt Q6P1N0, 303-346": "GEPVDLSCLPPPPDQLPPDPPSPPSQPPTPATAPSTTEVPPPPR", "UniProt Q7L2Z9": "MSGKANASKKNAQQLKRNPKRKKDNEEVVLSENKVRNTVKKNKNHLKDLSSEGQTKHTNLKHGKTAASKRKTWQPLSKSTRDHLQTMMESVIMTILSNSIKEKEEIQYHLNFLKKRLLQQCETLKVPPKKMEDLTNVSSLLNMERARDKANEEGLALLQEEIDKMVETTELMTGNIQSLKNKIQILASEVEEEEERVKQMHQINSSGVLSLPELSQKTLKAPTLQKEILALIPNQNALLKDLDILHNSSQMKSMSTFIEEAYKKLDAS"}, "source": "the supplement of paper PMC11732987", "about": "“Enantioselective OTUD7B fragment discovery through chemoproteomics screening and high-throughput optimisation” (Communications Chemistry, 2025)", "note": "The list shows a part of the results. The data scatter; read single values as rough.", "data": [{"compound": "ClCC(=O)N[C@H]1CCCc2ccccc12", "assay": "log2 mean competition ratio of IA-DTB cysteine labelling (DMSO/compound) (log2 ratio); higher = stronger cysteine engagement by compound", "conditions": "50 µM; treatment time: 4 h; cell line lysate: HEK293T", "description": "(§1)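 IA-DTB competitive cysteine chemoproteomics in HEK293T RIPA lysate. Lysates were treated with compound 29 or 30 at 50 or 200 µM for 4 h, then IA-DTB (500 µM, 1 h), trypsin-digested, NeutrAvidin-enriched and analysed by diaPASEF. Competition ratio = intensity DMSO / intensity compound (n=4 treated, n=64 DMSO); binding: mean log2 CR ≥ 1 and p ≤ 0.05 plus QC filters. Target is the cysteine site.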", "values": [{"target": "CEP250 C110 (UniProt Q9BV73)", "log2 mean competition ratio": 0.0924}, {"target": "CDK8 C291 (UniProt P49336)", "log2 mean competition ratio": -0.0119}, {"target": "CENPF C1233 (UniProt P49454)", "log2 mean competition ratio": -0.679}, {"target": "CDC6 C417 (UniProt Q99741)", "log2 mean competition ratio": -0.0295}, {"target": "CDC42BPB C1075 (UniProt Q9Y5S2)", "log2 mean competition ratio": 0.378}, {"target": "CHD4 C1827", "log2 mean competition ratio": -0.487}, {"target": "CENPE C714 (UniProt Q02224)", "log2 mean competition ratio": -0.264}, {"target": "CDC6 C156 (UniProt Q99741)", "log2 mean competition ratio": 0.0946}, {"target": "CCDC120 C391", "log2 mean competition ratio": 0.334}, {"target": "CCT2 C395 (UniProt P78371)", "log2 mean competition ratio": -0.152}, {"target": "CDCA2 C188 (UniProt Q69YH5)", "log2 mean competition ratio": -0.0587}, {"target": "CDK6 C15 (UniProt Q00534)", "log2 mean competition ratio": 0.231}, {"target": "CDC42EP4 C313 (UniProt Q9H3Q1)", "log2 mean competition ratio": 0.186}, {"target": "CCM2 C170 (UniProt Q9BSQ5)", "log2 mean competition ratio": -0.106}, {"target": "CHAMP1 C592 (UniProt Q96JM3)", "log2 mean competition ratio": -0.8}, {"target": "CDKAL1 C556 (UniProt Q5VV42)", "log2 mean competition ratio": 0.554}, {"target": "CEP192 C1828 (UniProt Q8TEP8)", "log2 mean competition ratio": -0.145}, {"target": "CCT5 C377 (UniProt P48643)", "log2 mean competition ratio": 0.154}, {"target": "CDIN1 C14", "log2 mean competition ratio": -0.363}, {"target": "CCNH C57 (UniProt P51946)", "log2 mean competition ratio": -0.342}, {"target": "CECR2 C1036", "log2 mean competition ratio": 0.0474}, {"target": "CCNB1 C238 (UniProt P14635)", "log2 mean competition ratio": 0.194}, {"target": "CCT3 C213", "log2 mean competition ratio": -0.443}, {"target": "CCDC97 C136 (UniProt Q96F63)", "log2 mean competition ratio": -0.194}, {"target": "CCDC47 C283 (UniProt Q96A33)", "log2 mean competition ratio": 0.308}, {"target": "CENPS C58 (UniProt Q8N2Z9)", "log2 mean competition ratio": 0.0908}, {"target": "CDCA2 C835 (UniProt Q69YH5)", "log2 mean competition ratio": -0.0669}, {"target": "CEP44 C28 (UniProt Q9C0F1)", "log2 mean competition ratio": -0.122}, {"target": "CCT6A C282 (UniProt P40227)", "log2 mean competition ratio": -0.401}, {"target": "CFAP97 C504 (UniProt Q9P2B7)", "log2 mean competition ratio": -0.0534}, {"target": "CC2D1A C310 (UniProt Q6P1N0)", "log2 mean competition ratio": -0.16}, {"target": "CCT4 C337 (UniProt P50991)", "log2 mean competition ratio": -0.348}, {"target": "CDK5RAP2 C528 (UniProt Q96SN8)", "log2 mean competition ratio": -0.101}, {"target": "CDX2 C166", "log2 mean competition ratio": 0.452}, {"target": "CFL1 C139", "log2 mean competition ratio": 0.394}, {"target": "CENPQ C121 (UniProt Q7L2Z9)", "log2 mean competition ratio": -0.134}, {"target": "CENPF C503 (UniProt P49454)", "log2 mean competition ratio": -0.592}]}, {"compound": "ClCC(=O)N[C@H]1CCCc2ccccc12", "assay": "log2 mean competition ratio of IA-DTB cysteine labelling (DMSO/compound) (log2 ratio); higher = stronger cysteine engagement by compound", "conditions": "200 µM; treatment time: 4 h; cell line lysate: HEK293T", "description": "as §1", "values": [{"target": "CEP250 C110 (UniProt Q9BV73)", "log2 mean competition ratio": -0.133}, {"target": "CDK8 C291 (UniProt P49336)", "log2 mean competition ratio": 0.351}, {"target": "CENPF C1233 (UniProt P49454)", "log2 mean competition ratio": -0.000433}, {"target": "CDC6 C417 (UniProt Q99741)", "log2 mean competition ratio": 0.183}, {"target": "CDC42BPB C1075 (UniProt Q9Y5S2)", "log2 mean competition ratio": -0.108}, {"target": "CHD4 C1827", "log2 mean competition ratio": -0.128}, {"target": "CENPE C714 (UniProt Q02224)", "log2 mean competition ratio": 0.592}, {"target": "CDC6 C156 (UniProt Q99741)", "log2 mean competition ratio": -0.059}, {"target": "CCDC120 C391", "log2 mean competition ratio": 0.501}, {"target": "CCT2 C395 (UniProt P78371)", "log2 mean competition ratio": -0.346}, {"target": "CDCA2 C188 (UniProt Q69YH5)", "log2 mean competition ratio": 0.512}, {"target": "CDK6 C15 (UniProt Q00534)", "log2 mean competition ratio": 0.00662}, {"target": "CDC42EP4 C313 (UniProt Q9H3Q1)", "log2 mean competition ratio": 0.108}, {"target": "CCM2 C170 (UniProt Q9BSQ5)", "log2 mean competition ratio": -0.0178}, {"target": "CHAMP1 C592 (UniProt Q96JM3)", "log2 mean competition ratio": -0.172}, {"target": "CDKAL1 C556 (UniProt Q5VV42)", "log2 mean competition ratio": 0.346}, {"target": "CEP192 C1828 (UniProt Q8TEP8)", "log2 mean competition ratio": 0.127}, {"target": "CCT5 C377 (UniProt P48643)", "log2 mean competition ratio": -0.059}, {"target": "CDIN1 C14", "log2 mean competition ratio": -0.0767}, {"target": "CCNH C57 (UniProt P51946)", "log2 mean competition ratio": 0.724}, {"target": "CECR2 C1036", "log2 mean competition ratio": 0.684}, {"target": "CCNB1 C238 (UniProt P14635)", "log2 mean competition ratio": -0.3}, {"target": "CCT3 C213", "log2 mean competition ratio": 0.195}, {"target": "CCDC97 C136 (UniProt Q96F63)", "log2 mean competition ratio": -0.12}, {"target": "CCDC47 C283 (UniProt Q96A33)", "log2 mean competition ratio": 0.0497}, {"target": "CENPS C58 (UniProt Q8N2Z9)", "log2 mean competition ratio": -0.0431}, {"target": "CDCA2 C835 (UniProt Q69YH5)", "log2 mean competition ratio": 0.2}, {"target": "CEP44 C28 (UniProt Q9C0F1)", "log2 mean competition ratio": -0.00183}, {"target": "CCT6A C282 (UniProt P40227)", "log2 mean competition ratio": -0.119}, {"target": "CFAP97 C504 (UniProt Q9P2B7)", "log2 mean competition ratio": 0.314}, {"target": "CC2D1A C310 (UniProt Q6P1N0)", "log2 mean competition ratio": -0.144}, {"target": "CCT4 C337 (UniProt P50991)", "log2 mean competition ratio": -0.0311}, {"target": "CDK5RAP2 C528 (UniProt Q96SN8)", "log2 mean competition ratio": 0.000202}, {"target": "CDX2 C166", "log2 mean competition ratio": 0.507}, {"target": "CFL1 C139", "log2 mean competition ratio": 0.124}, {"target": "CENPQ C121 (UniProt Q7L2Z9)", "log2 mean competition ratio": 0.174}, {"target": "CENPF C503 (UniProt P49454)", "log2 mean competition ratio": 0.00772}]}]}
